Experimental data reported in US20250306034A1, “Detection of Liver Disease” (Owlstone Medical Limited, priority 2022, published 2025).
Some entries share one result that the patent states for a list of compounds. For at least one compound, name, drawing or mass did not settle the structure.

Test: Nonanal and 2-butanol washout in breath of volunteers
Conditions: three volunteers; swallowed emulsion with 500 mg of Nonanal and 100 mg of 2-butanol; GC-MS
Protocol: An analysis of nonanal and 2-butanol washout of breath samples collected from three volunteers investigated before and after the intake of 500 mg of Nonanal and 100 mg of 2-butanol was performed. Three breath collections have been performed per each volunteer.
Three Volunteers participated in this trial for 3 times. They swallowed an emulsion containing 500 mg of Nonanal and 100 mg of 2-butanol and their breath was collected at 8 different time points before and after the emulsion intake using the ReCIVA, a face mask containing tubes for breath collection, and storage of exhaled VOCs.
Appearance on breath and conversion of the probes to their bioproducts was measured using gas-chromatography mass-spectrometry (GC-MS).

CCC(C)=O [2-butanone]
time after intake to increase/spike of level in breath: ≤ 20 min
